This passage reports binding results from publication PMC10368723.

Results are given in words; binding and its absence hold for the method and conditions named. Binding seen in cells or lysates may run through a third protein. Some results given as binding are weak or reduced against the parent protein; the word gives no strength.

The target of test [1] is MET404 (endogenous, GSC23 cells) (human (endogenous in GSC23)) (UniProt P08581). As to the kind of experiment: co-IP; whole GSC23 cell lysates, immunoprecipitation with anti-MET404 and anti-MET antibodies, immunoblotting with anti-MET404 and anti-MET antibodies (mutual IP).
The next test deals with LgBit- and SmBit-MET (UniProt P08581). The experiment in a line: split reporter; NanoBit system, LgBit and SmBit on the C-terminus of full-length MET, 293T HGF KO cells, live-cell luminescence before and after purified MET404 (1 µg/ml), up to 45 min.
For a further test, the target named is HA- and flag-tagged MET (UniProt P08581). The experiment in a line: co-IP; 293T HGF KO cells cotransfected with HA- and flag-tagged MET; lysates stimulated or not with MET404 (1 µg/ml); immunoprecipitated with anti-HA or anti-flag antibody, immunoblotted with anti-flag or anti-HA antibody.

On to “MET receptor (endogenous, GSC23 cells) (from UniProt P08581 25-1390)”, for which, in test [1], the binding entry is listed as “binds”. For “LgBit- and SmBit-MET (from UniProt P08581 25-1390) (receptor)”, the binding entry in the test with LgBit- and SmBit-MET is on record as “binds”. For “HA- and flag-tagged MET (from UniProt P08581 25-1390) (receptor)”, in the test with HA- and flag-tagged MET, the binding result is on record as “binds”.
